Binding result and half-maximal binding data for 1 sequence are collected here from publication PMC12494820, “Predicting input signals of transcription factors in Escherichia coli” (Molecular Systems Biology, 2025).

Protein sequences, listed by entry. Tags and fused reporters are not part of them. Lines headed by an entry give the natural chain unless they say otherwise; changes in a name come on top.
UniProt P10151: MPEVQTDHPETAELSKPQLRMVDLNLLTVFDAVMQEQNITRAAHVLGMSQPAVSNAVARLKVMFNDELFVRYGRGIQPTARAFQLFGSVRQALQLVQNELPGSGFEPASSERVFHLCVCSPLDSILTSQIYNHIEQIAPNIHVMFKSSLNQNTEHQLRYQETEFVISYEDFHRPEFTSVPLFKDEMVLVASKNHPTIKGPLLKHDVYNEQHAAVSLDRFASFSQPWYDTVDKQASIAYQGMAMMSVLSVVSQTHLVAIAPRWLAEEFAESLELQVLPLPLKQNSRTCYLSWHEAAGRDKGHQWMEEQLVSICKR

For at least one entry, the source does not settle the construct or the ends of the probe. At least one verdict was read from the data and is not stated in words by the source.

In this series the target is LeuO (Escherichia coli) (UniProt P10151). Briefly: EMSA. Conditions: EMSA: 10 mM Tris-HCl, 50 mM KCl, 5 mM MgCl2, 5% glycerol, 0.1 mg/ml BSA, pH 7.5, 500 ng salmon sperm DNA in 20 µl, 15 min at room temperature, gel 0.5x TBE at 4 °C, recombinant protein, label: Cy5 at 5' end of forward primer, probe letters rebuilt from the primers and the genome.

With “GGAATGAGTCATTTACCACAGCATAATAATCCATAATGTTTTTGTTGCGAAAACAATCTAATCATAACTACCGCGAATACTCAATCATCTACAAAATGGATTAAATGTGCTTATTTAATAATTAATTTATATATTTAATGCATTAATTCTTAACATTAATTGATCAATAATATTCACCAAATCAATATCAAAAAAAATCGCAAAACATATAATTCAATACAAATCATCAGGATAGGTTTTGCAACGCGTGCATTTTGTCCCCTTTTTCCTCGTTGATTAGATGCAAAAATTTATGCTGAAATATGTCAACCGATGAAAAGCGTCGG (double strand) [leuLABCD promoter region fragment]”, the binding result reads like this: (10 mM 2-isopropylmalate, binding significantly enhanced) “binds”; (10 mM 3-isopropylmalate, no significant enhancement) “binds”; (10 mM 3-methyl-2-oxobutanoate, no significant enhancement) “binds”; (10 mM pyruvate, no significant enhancement) “binds”. Also, under “no metabolite, 25 nM LeuO is the concentration used, chosen as about half of DNA bound”, the half-maximal binding is 25 nM.
